This assay addresses cYFP-CO (Arabidopsis thaliana) (UniProt Q39057). As to the kind of experiment: split reporter.

Amino acid sequences for entries named in this document (tags omitted). A change or cut given only in a name is not applied to a line headed by its entry.
UniProt Q39057: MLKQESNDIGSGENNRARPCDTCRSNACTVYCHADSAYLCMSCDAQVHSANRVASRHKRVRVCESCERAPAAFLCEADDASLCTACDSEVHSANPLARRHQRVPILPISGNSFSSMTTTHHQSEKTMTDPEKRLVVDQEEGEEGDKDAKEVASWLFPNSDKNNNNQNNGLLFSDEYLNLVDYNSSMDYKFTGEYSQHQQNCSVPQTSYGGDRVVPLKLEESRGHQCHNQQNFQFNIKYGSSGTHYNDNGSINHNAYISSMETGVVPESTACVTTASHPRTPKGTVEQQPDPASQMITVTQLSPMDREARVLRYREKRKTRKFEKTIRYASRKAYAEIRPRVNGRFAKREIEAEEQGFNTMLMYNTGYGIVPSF
UniProt O81834: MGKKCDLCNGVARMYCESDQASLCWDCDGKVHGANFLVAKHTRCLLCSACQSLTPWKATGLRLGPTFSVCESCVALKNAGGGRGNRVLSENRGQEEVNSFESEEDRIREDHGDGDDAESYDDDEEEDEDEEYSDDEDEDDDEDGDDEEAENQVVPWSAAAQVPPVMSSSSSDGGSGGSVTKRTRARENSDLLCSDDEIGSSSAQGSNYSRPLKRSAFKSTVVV

These are yes or no findings as the source states them, for the method shown. In cells and extracts the contact can be indirect. A result given as binding can be weak or reduced; the word gives no strength.

For “BBX28 in pCL112 (nYFP fusion) (from UniProt O81834)”, the binding result was “binds”.

Values taken from doi:10.1101/2024.04.19.590210.
